System: panel of 370 human protein kinases
Test: pan human kinome profiling (370 kinases)
Conditions: 2 μM; panel of 370 kinases

In the case of Cn1cnc(Br)c1C1=CN(c2ncnc3nc[nH]c23)CCS1 [Compound 1a, Aplithianine A1], the “number of kinases totally inactive (<5% inhibition)” value is reported as 65 and the “number of kinases with >50% inhibition” value is reported as 101.

Source: patent US20260184713A1, “KINASE INHIBITORS” (The United States of America, as represented by the …, priority 2022, published 2026)
